Article PMC2739719
Like-named read-outs stand apart in the source and are kept apart here. These are yes or no findings as the source states them, for the method shown. In cells and extracts the contact can be indirect. Some results given as binding are weak or reduced against the parent protein; the word gives no strength. For part of these data: Sequences can lack the tags named with a protein.

Amino acid sequences for entries named in this document (tags omitted).
UniProt P09874: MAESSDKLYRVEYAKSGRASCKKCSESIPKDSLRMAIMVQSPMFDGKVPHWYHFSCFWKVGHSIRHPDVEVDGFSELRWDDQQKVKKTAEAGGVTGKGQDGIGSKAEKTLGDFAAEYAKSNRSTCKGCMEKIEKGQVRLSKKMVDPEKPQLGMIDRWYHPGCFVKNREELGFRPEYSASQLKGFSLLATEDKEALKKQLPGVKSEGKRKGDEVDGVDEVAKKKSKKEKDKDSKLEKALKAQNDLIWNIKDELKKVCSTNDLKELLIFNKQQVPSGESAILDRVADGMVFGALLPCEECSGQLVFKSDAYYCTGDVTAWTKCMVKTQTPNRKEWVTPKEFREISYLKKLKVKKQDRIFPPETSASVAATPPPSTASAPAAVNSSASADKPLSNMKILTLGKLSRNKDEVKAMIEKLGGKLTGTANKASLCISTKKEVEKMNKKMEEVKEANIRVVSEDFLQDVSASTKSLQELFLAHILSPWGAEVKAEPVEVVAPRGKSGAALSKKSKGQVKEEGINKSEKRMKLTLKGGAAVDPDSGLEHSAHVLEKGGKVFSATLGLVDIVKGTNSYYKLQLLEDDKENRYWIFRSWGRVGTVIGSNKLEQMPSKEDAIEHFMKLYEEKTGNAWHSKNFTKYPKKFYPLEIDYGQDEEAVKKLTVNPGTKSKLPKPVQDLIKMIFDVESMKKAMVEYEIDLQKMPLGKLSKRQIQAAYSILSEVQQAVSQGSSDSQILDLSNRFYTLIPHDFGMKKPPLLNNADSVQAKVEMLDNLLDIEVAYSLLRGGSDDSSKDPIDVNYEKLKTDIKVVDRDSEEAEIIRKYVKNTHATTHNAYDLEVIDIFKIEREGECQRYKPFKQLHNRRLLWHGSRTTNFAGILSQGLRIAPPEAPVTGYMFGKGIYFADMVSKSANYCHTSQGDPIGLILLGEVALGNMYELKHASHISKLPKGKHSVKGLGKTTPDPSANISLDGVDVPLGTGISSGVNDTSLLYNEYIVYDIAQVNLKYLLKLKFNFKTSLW
UniProt Q92466: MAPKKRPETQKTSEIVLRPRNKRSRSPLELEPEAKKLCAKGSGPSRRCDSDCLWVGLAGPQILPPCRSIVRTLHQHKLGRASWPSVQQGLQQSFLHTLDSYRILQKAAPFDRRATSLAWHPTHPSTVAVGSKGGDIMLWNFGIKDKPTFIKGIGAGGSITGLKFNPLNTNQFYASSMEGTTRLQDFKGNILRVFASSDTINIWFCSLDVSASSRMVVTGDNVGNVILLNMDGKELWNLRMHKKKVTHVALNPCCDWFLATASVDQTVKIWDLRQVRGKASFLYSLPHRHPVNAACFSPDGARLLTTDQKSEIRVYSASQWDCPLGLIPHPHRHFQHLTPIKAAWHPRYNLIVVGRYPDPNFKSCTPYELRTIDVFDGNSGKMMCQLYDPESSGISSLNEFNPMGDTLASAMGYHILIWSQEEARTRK
UniProt P16403: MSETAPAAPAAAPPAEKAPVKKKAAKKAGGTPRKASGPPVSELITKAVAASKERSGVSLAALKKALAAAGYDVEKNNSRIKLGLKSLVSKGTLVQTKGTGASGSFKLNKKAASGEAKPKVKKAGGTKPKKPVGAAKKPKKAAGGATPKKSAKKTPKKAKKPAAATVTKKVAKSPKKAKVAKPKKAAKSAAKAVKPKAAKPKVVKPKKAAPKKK
UniProt Q16576: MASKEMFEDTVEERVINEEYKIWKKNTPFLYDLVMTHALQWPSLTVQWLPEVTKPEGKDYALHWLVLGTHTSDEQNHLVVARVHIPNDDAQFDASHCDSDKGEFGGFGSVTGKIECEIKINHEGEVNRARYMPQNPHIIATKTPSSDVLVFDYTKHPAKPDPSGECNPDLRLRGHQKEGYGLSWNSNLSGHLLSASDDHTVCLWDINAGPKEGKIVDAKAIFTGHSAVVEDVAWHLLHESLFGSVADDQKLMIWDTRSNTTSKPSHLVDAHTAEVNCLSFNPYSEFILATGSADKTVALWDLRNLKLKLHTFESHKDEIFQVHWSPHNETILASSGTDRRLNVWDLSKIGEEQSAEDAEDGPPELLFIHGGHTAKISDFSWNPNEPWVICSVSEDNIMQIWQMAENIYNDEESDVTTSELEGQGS
UniProt Q09028: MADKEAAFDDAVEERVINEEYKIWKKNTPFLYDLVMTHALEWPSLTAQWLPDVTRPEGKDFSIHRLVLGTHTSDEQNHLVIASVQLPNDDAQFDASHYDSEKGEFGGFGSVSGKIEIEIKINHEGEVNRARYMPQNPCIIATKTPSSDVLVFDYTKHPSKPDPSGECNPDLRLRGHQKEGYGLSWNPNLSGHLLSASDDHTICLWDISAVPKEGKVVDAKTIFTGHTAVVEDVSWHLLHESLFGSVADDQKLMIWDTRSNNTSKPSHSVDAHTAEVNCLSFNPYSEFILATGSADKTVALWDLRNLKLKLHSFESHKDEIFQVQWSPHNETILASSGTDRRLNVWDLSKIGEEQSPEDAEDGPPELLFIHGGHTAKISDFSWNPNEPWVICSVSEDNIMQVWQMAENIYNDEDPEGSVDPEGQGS
UniProt Q92785: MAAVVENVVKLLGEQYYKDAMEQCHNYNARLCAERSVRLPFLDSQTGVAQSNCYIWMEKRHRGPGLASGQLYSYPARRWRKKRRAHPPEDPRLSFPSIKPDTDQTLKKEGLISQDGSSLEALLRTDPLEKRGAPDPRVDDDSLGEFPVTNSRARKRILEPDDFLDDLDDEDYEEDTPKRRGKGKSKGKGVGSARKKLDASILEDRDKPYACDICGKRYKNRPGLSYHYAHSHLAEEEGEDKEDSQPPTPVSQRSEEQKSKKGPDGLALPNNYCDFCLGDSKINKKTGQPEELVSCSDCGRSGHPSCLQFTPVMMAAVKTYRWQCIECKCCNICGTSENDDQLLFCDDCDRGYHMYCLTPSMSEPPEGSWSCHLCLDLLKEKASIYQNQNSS
UniProt Q13619: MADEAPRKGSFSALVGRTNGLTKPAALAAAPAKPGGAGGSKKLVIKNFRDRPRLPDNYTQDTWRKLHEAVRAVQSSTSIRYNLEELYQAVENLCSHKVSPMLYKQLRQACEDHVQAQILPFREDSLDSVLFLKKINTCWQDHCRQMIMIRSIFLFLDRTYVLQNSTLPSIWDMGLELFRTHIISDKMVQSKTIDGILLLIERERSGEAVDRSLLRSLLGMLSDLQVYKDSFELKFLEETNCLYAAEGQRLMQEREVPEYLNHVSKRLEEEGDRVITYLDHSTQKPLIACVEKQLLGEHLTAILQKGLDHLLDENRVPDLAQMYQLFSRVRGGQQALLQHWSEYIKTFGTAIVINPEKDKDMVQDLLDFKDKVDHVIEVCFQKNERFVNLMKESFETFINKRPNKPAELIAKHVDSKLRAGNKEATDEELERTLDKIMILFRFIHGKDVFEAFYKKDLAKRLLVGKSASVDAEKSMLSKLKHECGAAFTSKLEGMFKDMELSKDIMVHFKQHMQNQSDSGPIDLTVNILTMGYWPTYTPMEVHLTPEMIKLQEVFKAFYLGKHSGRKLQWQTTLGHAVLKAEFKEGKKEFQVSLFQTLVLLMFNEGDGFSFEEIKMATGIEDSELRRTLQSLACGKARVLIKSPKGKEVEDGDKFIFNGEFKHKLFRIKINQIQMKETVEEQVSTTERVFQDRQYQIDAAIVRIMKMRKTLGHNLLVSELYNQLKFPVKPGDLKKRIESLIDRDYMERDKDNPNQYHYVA
UniProt Q96KQ7: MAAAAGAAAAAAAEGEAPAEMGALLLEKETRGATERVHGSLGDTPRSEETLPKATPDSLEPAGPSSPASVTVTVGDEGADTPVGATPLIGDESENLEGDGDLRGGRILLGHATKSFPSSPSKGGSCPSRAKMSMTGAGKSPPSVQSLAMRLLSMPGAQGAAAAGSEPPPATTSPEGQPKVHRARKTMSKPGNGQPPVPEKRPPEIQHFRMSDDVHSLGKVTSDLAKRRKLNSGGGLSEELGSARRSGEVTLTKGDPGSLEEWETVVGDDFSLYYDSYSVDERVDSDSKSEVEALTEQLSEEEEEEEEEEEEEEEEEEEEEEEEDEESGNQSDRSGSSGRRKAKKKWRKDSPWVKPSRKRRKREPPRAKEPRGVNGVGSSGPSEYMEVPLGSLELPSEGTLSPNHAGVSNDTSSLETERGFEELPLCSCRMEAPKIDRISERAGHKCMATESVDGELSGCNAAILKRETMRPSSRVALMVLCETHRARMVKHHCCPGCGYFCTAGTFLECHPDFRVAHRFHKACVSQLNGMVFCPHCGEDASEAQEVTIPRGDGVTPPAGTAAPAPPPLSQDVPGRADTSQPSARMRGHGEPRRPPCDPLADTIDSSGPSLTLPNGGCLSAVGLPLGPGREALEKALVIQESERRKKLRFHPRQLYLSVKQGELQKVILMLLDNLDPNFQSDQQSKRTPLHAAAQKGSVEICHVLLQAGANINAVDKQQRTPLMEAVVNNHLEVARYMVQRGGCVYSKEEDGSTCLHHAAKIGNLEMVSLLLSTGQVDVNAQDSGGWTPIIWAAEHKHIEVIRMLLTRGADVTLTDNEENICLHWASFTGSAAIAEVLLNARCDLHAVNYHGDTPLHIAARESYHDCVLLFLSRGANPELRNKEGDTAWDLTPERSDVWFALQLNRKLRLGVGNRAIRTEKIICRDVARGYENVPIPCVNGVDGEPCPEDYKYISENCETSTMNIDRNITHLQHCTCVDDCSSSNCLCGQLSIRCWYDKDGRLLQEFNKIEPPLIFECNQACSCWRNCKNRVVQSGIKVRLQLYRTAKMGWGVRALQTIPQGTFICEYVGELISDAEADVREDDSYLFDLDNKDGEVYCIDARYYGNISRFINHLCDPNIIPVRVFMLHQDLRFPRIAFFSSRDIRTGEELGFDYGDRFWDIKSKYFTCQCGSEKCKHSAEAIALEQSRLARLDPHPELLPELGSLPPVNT
UniProt Q01105: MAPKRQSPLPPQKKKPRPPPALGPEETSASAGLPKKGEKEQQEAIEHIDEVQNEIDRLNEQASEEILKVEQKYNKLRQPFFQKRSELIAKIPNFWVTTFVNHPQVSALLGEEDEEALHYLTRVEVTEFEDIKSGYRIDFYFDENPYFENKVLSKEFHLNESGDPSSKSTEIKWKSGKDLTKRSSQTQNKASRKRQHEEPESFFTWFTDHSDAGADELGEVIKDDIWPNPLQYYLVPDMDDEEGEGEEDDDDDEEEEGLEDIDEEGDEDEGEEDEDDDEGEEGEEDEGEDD
UniProt Q16531: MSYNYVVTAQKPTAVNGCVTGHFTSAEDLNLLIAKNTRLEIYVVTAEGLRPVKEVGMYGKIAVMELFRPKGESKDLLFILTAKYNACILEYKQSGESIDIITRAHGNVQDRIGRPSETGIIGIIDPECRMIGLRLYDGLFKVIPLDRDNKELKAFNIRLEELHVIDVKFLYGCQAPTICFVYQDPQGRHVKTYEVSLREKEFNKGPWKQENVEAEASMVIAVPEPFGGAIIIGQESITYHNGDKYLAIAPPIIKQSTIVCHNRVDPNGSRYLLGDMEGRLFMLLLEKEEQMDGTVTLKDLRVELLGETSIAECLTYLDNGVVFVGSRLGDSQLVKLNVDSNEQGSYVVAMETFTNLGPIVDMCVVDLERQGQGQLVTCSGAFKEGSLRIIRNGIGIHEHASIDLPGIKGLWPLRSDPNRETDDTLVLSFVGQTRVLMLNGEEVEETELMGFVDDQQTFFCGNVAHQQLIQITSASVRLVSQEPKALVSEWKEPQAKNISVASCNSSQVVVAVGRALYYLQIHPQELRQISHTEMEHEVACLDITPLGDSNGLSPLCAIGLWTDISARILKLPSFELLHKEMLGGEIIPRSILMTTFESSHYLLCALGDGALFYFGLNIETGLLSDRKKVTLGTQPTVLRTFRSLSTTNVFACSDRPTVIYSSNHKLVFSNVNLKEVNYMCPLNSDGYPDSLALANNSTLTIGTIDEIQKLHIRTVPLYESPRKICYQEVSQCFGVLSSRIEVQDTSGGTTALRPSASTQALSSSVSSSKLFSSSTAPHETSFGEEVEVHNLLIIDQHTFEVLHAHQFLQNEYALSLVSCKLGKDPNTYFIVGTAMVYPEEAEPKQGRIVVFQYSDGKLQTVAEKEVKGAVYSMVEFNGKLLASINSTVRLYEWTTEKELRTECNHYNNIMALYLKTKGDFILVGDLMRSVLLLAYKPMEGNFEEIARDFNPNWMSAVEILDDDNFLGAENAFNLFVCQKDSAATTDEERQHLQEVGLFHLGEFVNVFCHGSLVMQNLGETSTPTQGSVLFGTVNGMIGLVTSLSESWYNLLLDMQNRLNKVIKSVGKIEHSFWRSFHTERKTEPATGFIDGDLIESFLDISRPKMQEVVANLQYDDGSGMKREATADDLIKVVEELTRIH

How the values were obtained:
FLAG-BAF = molecular target: T1, FLAG-BAF (UniProt O75531); assay: co-IP; stable tetracycline-inducible FLAG-BAF HEK293 cells; FLAG-BAF precipitated, endogenous partners detected; data not shown
T1 sequence: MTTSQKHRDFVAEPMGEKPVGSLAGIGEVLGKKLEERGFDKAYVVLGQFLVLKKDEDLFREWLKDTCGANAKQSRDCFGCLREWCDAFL

FLAG-PARP1 (human) [1] = molecular target: FLAG-PARP1 (human) (UniProt P09874); assay: co-IP; HeLa transiently expressing FLAG-tagged protein (24 hrs), whole cell lysates, Flag-M2 agarose beads 4 hrs 4°C, washed with IP buffer (300 mM NaCl, 0.3% Triton X-100), eluted with 2X-SB or Flag-peptide; blots for endogenous proteins; some cells UV-irradiated (20 J/m^2) and left to recover
FLAG-DDB2 [2] = molecular target: FLAG-DDB2 (UniProt Q92466); assay: as above
GFP-H1.2 = GFP-H1.2 (UniProt P16403); assay: co-IP; HeLa transiently expressing GFP-tagged protein (24 hrs), untreated or UV-irradiated with 1 hr recovery; whole cell lysates, GFP antibody and GammaBind G sepharose; blots for endogenous BAF and emerin
GFP-RBBP7 (human) = GFP-RBBP7 (human) (UniProt Q16576); assay: as above
GFP-RBBP4 (human) = GFP-RBBP4 (human) (UniProt Q09028); assay: as above
FLAG-PARP1 (human) [3] = molecular target: FLAG-PARP1 (human) (UniProt P09874); assay: co-IP; FLAG-PARP1 from HeLa under low stringency (150 mM NaCl, 0.15% TX-100); data not shown
FLAG-Requiem (human) = FLAG-Requiem (human) (UniProt Q92785); assay: co-IP; HeLa transiently expressing FLAG-tagged protein (24 hrs), whole cell lysates, Flag-M2 agarose beads 4 hrs 4°C, washed with IP buffer (300 mM NaCl, 0.3% Triton X-100), eluted with 2X-SB or Flag-peptide; blots for endogenous proteins; some cells UV-irradiated (20 J/m^2) and left to recover
FLAG-PARP1 (human) [4] = molecular target: FLAG-PARP1 (human) (UniProt P09874); assay: as above; remark: listed apart in the source
FLAG-DDB2 [5] = molecular target: FLAG-DDB2 (UniProt Q92466); assay: as above; remark: listed apart in the source
FLAG-CUL4A = FLAG-CUL4A (UniProt Q13619); assay: as above
G9a, FLAG- or GFP-tagged = G9a, FLAG- or GFP-tagged (UniProt Q96KQ7); assay: co-IP; tagged G9a and SET/I2PP2A transiently expressed in HeLa, blot for endogenous BAF; ascribed to a manuscript in preparation
[6] = molecular target: SET/I2PP2A, FLAG- or GFP-tagged (UniProt Q01105); assay: as above

In the case of “endogenous PARP1 of HEK293 cells (from UniProt P09874 1-1014)”, the binding (FLAG-BAF) is reported as “binds”.

“endogenous DDB1 of HEK293 cells (from UniProt Q16531 1-1140)” was tested, and the binding (FLAG-BAF) was “binds”.

For Lamin A/C (from UniProt P02545 1-646), the binding (FLAG-PARP1 (human) [1]) was “binds”.

For “endogenous RBBP4 of HEK293 cells (from UniProt Q09028 1-425)”, the binding (FLAG-BAF) was “binds”.

“Damage-specific DNA binding protein 1 (from UniProt Q16531 1-1140)” was tested, and the binding (FLAG-DDB2 [2]) was “binds”.

B1: endogenous Barrier-to-autointegration factor (BAF) (protein, UniProt O75531 1-89)
chain: T1 sequence
B1 was tested, and the binding (GFP-H1.2) was “binds”, the binding (GFP-RBBP7 (human)) was “binds weakly” and the binding (GFP-RBBP4 (human)) was “binds”. The binding (FLAG-PARP1 (human) [3]) was “binds”, the binding (FLAG-Requiem (human)) was “binds” and the binding (FLAG-PARP1 (human) [4]) was “binds”. The binding (FLAG-DDB2 [5]) was “binds”, the binding (FLAG-CUL4A) was “binds” and the binding (G9a, FLAG- or GFP-tagged) was “binds”. The binding [6] was “binds”.
